Results are given in words; binding and its absence hold for the method and conditions named. In cells and extracts the contact can be indirect. Some binding calls cover weakened binding; strength is not graded here. Tags and fused reporters may be left off the sequences shown. Each block holds one binder with its values, some of them ahead of it.
Assays:
[1] = molecular target: T1, POC1A-FLAG (full-length POC1A, FLAG-tagged) (human) (UniProt Q8NBT0); experiment: co-IP; FLAG IP from HEK293T cells co-expressing FLAG-tagged POC1 constructs (bait) and HA-tagged partners (prey), Dox-induced, harvested after 24 h; lysis 150 mM NaCl, 10 mM Tris-Cl pH 7.5, 0.5 mM EDTA, 0.5% NP-40, Benzonase; beads 1 h at 4 °C; washes 300 mM NaCl; elution with FLAG peptide; immunoblot
T1 sequence: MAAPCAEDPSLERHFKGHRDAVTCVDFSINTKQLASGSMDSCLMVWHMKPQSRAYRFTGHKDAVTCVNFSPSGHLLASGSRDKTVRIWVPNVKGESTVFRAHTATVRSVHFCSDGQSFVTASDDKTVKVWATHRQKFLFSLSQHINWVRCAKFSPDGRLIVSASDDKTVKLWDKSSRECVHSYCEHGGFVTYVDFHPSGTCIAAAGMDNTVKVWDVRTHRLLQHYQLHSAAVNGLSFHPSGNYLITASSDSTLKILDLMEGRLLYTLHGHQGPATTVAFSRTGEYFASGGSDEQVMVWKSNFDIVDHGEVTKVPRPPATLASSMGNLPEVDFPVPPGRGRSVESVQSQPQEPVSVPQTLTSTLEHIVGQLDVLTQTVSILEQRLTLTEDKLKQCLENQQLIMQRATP

[2] = molecular target: T2, POC1B-FLAG (full-length POC1B, FLAG-tagged) (human) (UniProt Q8TC44); experiment: as above
T2 sequence: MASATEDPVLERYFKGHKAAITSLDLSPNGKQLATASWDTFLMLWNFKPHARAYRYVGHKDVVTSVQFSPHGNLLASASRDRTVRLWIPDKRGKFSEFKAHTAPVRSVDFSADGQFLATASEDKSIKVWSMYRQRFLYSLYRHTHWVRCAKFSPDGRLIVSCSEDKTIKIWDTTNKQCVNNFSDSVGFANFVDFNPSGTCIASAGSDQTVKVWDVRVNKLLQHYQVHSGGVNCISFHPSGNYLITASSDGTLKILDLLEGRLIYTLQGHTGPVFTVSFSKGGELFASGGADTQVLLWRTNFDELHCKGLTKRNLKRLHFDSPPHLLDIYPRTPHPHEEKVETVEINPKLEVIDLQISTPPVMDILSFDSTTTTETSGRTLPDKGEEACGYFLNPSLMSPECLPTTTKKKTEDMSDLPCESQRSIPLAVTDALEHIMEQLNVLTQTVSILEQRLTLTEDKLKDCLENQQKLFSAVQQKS

- binding [1]: no binding
B1: POC5^1-471-HA (N-terminus of POC5) (domain or fragment, UniProt Q8NA72 1-471)
chain: MSSDEEKYSLPVVQNDSSRGSSVSSNLQEEYEELLHYAIVTPNIEPCASQSSHPKGELVPDVRISTIHDILHSQGNNSEVRETAIEVGKGCDFHISSHSKTDESSPVLSPRKPSHPVMDFFSSHLLADSSSPATNSSHTDAHEILVSDFLVSDENLQKMENVLDLWSSGLKTNIISELSKWRLNFIDWHRMEMRKEKEKHAAHLKQLCNQINELKELQKTFEISIGRKDEVISSLSHAIGKQKEKIELMRTFFHWRIGHVRARQDVYEGKLADQYYQRTLLKKVWKVWRSVVQKQWKDVVERACQARAEEVCIQISNDYEAKVAMLSGALENAKAEIQRMQHEKEHFEDSMKKAFMRGVCALNLEAMTIFQNRNDAGIDSTNNKKEEYGPGVQGKEHSAHLDPSAPPMPLPVTSPLLPSPPAAVGGASATAVPSAASMTSTRAASASSVHVPVSALGAGSAATAASEEMYV

- binding [1]: binds
B2: POC5^266-575-HA (C-terminal fragment of POC5) (domain or fragment, UniProt Q8NA72 266-575)
chain: VYEGKLADQYYQRTLLKKVWKVWRSVVQKQWKDVVERACQARAEEVCIQISNDYEAKVAMLSGALENAKAEIQRMQHEKEHFEDSMKKAFMRGVCALNLEAMTIFQNRNDAGIDSTNNKKEEYGPGVQGKEHSAHLDPSAPPMPLPVTSPLLPSPPAAVGGASATAVPSAASMTSTRAASASSVHVPVSALGAGSAATAASEEMYVPRVVTSAQQKAGRTITARITGRCDFASKNRISSSLAIMGVSPPMSSVVVEKHHPVTVQTIPQATAAKYPRTIHPESSTSASRSLGTRSAHTQSLTSVHSIKVVD

- binding [2]: binds
- binding [1]: binds
B3: MDM1-HA (protein, UniProt Q8TC05 1-714)
chain: MPVRFKGLSEYQRNFLWKKSYLSESCNSSVGRKYPWAGLRSDQLGITKEPSFISKRRVPYHDPQISKSLEWNGAISESNVVASPEPEAPETPKSQEAEQKDVTQERVHSLEASRVPKRTRSHSADSRAEGASDVENNEGVTNHTPVNENVELEHSTKVLSENVDNGLDRLLRKKAGLTVVPSYNALRNSEYQRQFVWKTSKETAPAFAANQVFHNKSQFVPPFKGNSVIHETEYKRNFKGLSPVKEPKLRNDLRENRNLETVSPERKSNKIDDRLKLEAEMELKDLHQPKRKLTPWKHQRLGKVNSEYRAKFLSPAQYLYKAGAWTHVKGNMPNQVKELREKAEFYRKRVQGTHFSRDHLNQILSDSNCCWDVSSTTSSEGTVSSNIRALDLAGDPTSHKTLQKCPSTEPEEKGNIVEEQPQKNTTEKLGVSAPTIPVRRRLAWDTENTSEDVQKQPGEKEEEDDNEEEGDRKTGKQAFMGEQEKLDVREKSKADKMKEGSDSSVSSEKGGRLPTPKLRELGGIQRTHHDLTTPAVGGAVLVSPSKMKPPAPEQRKRMTSQDCLETSKNDFTKKESRAVSLLTSPAAGIKTVDPLPLREDSEDNIHKFAEATLPVSKIPKYPTNPPGQLPSPPHVPSYWHPSRRIQGSLRDPEFQHNVGKARMNNLQLPQHEAFNDEDEDRLSEISARSAASSLRAFQTLARAKKRKENFWGKT
